The other results are listed elsewhere or left out. Residues, ends and D or L forms follow the SMILES beside them. *: point of attachment. Cbz = O=C(OCc1ccccc1)*
Key:
Assay in all cases: log2 fold change, soluble protein after heating vs DMSO (PISA); higher = thermal stabilisation; K562 cells, 10 uM, 30 min; active = over 0.2 and 3.5 SD of the protein, either way, in both replicates (recomputed)
erlotinib = compound: C#Cc1cccc(Nc2ncnc3cc(OCCOC)c(OCCOC)cc23)c1 [erlotinib]
Method in brief: (§1)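 For each measurement, 10 μM compound was applied for 30 min to K562 cells at 2×10^6 cells/mL. Aliquots were heated for 3 min across 48°C-58°C, pooled, and extracted in PBS with 0.5% NP-40 at 4°C; the supernatant after 21,000xg for 90 min was soluble protein. This was quantified by TMTpro 16plex LC-MS/MS with channel sums equalised, and thermal stability was reported relative to control samples from duplicates, on a log2 fold-change scale.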

Protein sequences, listed by entry. Tags and fused reporters are not part of them. Lines headed by an entry give the natural chain unless they say otherwise; changes in a name come on top.
UniProt Q9NPQ8: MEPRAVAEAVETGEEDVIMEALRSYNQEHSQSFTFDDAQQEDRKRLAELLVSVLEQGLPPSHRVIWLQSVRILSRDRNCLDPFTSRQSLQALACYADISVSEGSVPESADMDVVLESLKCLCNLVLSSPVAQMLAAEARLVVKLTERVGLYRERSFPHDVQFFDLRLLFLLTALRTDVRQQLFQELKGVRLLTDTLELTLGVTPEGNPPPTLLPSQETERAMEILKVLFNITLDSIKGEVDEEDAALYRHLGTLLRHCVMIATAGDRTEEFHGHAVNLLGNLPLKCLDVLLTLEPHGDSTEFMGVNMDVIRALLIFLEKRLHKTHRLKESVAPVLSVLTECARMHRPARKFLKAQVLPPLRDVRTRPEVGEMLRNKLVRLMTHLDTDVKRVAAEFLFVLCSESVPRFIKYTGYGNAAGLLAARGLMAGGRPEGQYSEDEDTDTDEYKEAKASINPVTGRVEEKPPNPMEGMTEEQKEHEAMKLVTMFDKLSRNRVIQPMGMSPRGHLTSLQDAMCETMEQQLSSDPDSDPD
UniProt Q96D15: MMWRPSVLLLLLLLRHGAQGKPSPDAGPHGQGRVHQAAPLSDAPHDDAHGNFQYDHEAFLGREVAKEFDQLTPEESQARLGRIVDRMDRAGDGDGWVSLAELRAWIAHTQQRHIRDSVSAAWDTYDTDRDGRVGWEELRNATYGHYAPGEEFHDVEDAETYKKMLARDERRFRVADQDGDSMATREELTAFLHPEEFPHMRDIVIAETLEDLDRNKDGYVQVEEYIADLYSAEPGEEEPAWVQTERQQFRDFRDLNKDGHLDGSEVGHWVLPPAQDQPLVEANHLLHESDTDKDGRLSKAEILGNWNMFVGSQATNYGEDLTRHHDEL
UniProt Q9P2R6: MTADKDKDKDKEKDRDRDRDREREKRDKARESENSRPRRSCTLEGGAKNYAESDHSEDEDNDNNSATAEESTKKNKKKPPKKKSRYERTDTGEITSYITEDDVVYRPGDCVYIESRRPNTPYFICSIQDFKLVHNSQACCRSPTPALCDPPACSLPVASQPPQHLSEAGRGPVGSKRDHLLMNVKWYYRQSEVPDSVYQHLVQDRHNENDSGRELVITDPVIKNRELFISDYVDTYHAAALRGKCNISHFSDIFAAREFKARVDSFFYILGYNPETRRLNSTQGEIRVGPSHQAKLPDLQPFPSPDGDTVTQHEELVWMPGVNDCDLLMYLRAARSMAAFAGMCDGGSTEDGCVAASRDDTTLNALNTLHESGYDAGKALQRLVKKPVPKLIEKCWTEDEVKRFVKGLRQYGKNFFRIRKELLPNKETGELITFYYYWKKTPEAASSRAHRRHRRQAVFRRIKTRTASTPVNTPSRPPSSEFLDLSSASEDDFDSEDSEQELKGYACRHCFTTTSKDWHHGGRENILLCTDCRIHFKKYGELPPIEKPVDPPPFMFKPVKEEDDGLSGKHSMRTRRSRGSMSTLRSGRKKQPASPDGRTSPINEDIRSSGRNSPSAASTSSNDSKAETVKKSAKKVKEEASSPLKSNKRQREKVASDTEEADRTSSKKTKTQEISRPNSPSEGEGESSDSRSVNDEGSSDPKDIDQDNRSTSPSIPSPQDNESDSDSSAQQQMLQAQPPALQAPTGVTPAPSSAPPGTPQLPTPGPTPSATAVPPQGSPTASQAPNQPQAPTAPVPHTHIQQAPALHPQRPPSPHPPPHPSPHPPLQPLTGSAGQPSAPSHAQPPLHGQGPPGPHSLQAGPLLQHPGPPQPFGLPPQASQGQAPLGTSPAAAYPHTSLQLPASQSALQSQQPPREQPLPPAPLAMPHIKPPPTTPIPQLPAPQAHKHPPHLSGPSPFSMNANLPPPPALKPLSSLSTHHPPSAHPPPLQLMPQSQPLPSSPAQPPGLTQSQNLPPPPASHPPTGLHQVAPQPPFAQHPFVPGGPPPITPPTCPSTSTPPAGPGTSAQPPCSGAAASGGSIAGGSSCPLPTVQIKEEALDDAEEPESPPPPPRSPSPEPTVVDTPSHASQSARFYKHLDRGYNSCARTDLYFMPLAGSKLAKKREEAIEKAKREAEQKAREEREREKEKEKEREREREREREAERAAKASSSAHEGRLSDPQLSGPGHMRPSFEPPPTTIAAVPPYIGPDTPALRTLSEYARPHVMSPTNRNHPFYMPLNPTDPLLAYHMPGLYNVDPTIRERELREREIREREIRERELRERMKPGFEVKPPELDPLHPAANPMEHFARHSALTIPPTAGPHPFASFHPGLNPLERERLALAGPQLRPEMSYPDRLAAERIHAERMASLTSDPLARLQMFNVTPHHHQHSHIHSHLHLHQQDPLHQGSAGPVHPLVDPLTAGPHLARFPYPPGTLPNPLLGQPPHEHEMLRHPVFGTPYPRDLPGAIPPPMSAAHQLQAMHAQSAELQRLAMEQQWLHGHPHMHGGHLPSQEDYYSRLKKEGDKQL
UniProt Q8NDN9: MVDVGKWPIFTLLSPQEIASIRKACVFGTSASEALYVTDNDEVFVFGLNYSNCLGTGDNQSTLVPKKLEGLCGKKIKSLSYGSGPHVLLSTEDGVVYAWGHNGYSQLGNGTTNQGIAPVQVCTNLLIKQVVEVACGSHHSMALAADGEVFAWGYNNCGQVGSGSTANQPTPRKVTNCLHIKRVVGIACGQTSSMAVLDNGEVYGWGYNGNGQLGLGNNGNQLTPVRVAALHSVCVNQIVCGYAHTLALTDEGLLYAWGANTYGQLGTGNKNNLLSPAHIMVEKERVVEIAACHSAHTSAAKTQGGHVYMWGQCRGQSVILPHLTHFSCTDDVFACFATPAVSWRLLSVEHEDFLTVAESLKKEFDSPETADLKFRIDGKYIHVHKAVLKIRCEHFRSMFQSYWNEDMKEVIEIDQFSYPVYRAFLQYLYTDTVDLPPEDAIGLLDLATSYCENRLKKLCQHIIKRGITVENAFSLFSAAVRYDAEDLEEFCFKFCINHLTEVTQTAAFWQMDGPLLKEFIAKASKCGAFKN
UniProt Q6ZS17: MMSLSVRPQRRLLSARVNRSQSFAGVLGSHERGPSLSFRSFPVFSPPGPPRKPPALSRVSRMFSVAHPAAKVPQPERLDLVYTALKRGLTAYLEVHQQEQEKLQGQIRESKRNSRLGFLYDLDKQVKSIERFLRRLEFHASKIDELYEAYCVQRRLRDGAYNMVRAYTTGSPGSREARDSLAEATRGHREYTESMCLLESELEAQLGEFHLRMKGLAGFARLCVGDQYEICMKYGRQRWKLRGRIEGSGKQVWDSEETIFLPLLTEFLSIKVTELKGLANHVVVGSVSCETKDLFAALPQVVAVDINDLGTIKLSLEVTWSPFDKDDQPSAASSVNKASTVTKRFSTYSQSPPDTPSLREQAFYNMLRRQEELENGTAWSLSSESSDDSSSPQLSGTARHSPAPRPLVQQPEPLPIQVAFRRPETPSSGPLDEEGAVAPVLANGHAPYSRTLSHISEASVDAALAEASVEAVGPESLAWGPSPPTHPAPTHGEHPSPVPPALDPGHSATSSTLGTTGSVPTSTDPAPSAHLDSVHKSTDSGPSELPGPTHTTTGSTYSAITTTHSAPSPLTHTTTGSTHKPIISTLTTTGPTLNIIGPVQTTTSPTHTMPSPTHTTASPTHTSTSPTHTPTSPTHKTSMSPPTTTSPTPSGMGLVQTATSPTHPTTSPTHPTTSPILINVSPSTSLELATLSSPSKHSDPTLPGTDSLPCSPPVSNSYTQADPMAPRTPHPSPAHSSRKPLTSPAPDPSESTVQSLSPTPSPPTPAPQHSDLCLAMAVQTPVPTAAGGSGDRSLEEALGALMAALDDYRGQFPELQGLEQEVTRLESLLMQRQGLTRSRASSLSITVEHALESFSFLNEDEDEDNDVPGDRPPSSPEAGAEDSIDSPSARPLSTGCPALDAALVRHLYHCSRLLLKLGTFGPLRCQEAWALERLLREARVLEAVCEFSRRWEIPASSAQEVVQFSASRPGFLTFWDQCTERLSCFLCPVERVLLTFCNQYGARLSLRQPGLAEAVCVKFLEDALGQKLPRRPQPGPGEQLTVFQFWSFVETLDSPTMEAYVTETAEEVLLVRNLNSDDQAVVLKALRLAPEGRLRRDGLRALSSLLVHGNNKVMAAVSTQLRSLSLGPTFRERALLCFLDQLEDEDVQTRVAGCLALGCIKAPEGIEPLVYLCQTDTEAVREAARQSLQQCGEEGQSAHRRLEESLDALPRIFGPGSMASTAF
UniProt Q9HBD1: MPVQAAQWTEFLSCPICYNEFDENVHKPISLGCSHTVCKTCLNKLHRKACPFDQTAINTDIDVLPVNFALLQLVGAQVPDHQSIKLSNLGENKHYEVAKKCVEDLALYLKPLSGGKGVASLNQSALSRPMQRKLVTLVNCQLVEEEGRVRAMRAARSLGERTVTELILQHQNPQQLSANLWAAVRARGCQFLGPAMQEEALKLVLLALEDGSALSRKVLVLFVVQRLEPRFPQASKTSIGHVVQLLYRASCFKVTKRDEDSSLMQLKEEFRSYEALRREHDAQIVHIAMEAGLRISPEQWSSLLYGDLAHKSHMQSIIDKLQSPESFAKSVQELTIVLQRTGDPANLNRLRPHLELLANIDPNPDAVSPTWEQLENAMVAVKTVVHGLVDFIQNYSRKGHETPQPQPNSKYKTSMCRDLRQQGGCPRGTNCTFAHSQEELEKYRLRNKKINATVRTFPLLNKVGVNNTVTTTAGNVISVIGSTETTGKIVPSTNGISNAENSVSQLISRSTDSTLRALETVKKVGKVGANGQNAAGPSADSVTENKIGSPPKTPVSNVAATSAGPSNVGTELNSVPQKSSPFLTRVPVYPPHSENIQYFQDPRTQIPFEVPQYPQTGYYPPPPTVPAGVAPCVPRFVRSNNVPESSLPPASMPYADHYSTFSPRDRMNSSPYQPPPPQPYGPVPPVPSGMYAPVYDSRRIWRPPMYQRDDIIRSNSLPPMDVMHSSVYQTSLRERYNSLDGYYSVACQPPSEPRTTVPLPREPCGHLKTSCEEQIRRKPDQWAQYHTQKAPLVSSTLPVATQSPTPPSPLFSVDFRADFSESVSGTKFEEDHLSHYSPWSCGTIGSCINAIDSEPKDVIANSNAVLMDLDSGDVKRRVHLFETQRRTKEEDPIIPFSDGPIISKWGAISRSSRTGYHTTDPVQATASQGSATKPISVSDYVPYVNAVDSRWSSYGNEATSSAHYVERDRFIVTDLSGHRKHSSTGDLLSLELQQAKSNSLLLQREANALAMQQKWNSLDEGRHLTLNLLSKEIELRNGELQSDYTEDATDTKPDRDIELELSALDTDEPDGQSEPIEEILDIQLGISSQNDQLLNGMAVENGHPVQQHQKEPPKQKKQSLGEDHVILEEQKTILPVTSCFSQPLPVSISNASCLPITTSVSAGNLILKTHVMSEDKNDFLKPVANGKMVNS
UniProt Q04206, whole entry, looked up: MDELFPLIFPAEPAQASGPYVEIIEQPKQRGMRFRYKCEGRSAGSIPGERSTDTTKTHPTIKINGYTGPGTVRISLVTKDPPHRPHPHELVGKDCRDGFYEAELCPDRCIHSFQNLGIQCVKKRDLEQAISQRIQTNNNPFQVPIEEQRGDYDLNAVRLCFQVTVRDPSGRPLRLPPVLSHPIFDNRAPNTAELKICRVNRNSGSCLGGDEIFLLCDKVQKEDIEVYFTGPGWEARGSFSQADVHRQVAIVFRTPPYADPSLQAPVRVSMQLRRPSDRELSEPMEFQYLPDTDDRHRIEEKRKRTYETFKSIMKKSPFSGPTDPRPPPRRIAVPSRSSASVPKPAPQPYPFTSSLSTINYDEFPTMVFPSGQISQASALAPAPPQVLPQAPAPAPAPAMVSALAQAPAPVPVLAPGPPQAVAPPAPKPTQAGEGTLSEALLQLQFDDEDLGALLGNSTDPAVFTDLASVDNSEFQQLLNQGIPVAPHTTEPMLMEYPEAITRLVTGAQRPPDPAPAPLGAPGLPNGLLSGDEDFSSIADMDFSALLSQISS

[1] = compound: C/C(=N\NC(=O)C1=CC(=CC=C1)S(=O)(=O)N2CCOCC2)/C3=C(C=CC(=C3)Cl)O
Method in brief: as §1

[2] = compound: C1=CC(=C(C=C1Cl)C2=NC3=NC=CN=C3C(=N2)NC4=CC=NC=C4)F
Method in brief: as §1

[3] = compound: C1=CC(=CC=C1C2=NC3=C(N2)C=C(C=C3)C(=O)N)OC4=CC=C(C=C4)Cl
Method in brief: as §1

[4] = compound: C1=CC2=C(C=CC(=C2)/C=C\3/C(=O)NC(=NCC4=CC=CS4)S3)N=C1
Method in brief: as §1

[5] = compound: C1=CC2=NC=CN=C2C=C1/C=C/3\C(=O)NC(=O)S3
Method in brief: as §1

[6] = compound: C1=CC=C(C=C1)C2=NC(=C(N2)C3=CC=NC=C3)C4=CC(=C(C=C4)Cl)O
Method in brief: as §1

[7] = compound: C1=CC=C2C(=C1)C3=NNC4=CC=CC(=C43)C2=O
Method in brief: as §1

[8] = compound: C1CCN(C1)C(=O)NC2=CC=CC(=C2)NC3=NC=C(C(=N3)NCCC4=CN=CN4)Br
Method in brief: as §1

[9] = compound: C1CN(CCC1(CC2=CC=C(C=C2)Cl)N)C3=NC=NC4=C3C=CN4
Method in brief: as §1

IRAK-1-4 Inhibitor I = compound: C1COCCN1CCN2C3=CC=CC=C3N=C2NC(=O)C4=CC(=CC=C4)[N+](=O)[O-] [IRAK-1-4 Inhibitor I]
Method in brief: as §1

ibrutinib = compound: C=CC(=O)N1CCC[C@@H](n2nc(-c3ccc(Oc4ccccc4)cc3)c3c(N)ncnc32)C1 [ibrutinib]
Method in brief: as §1

[10] = compound: CC(=O)c1cnc2ccc(-c3cc(Cl)c(O)c(Cl)c3)nc2c1N[C@H]1CC[C@H](CN(C)C)CC1
Method in brief: as §1

ralimetinib = compound: CC(C)(C)Cn1c(N)nc2ccc(-c3[nH]c(C(C)(C)C)nc3-c3ccc(F)cc3)nc21 [ralimetinib]
Method in brief: as §1

[11] = compound: CC(C)(O)CC(=O)NCCn1ccc2ncnc(Nc3ccc(Oc4cccc(C(F)(F)F)c4)c(Cl)c3)c21
Method in brief: as §1

[12] = compound: CC(C)C1=C2N=C(C=C(N2N=C1)NCC3=CC=CC=C3)NCCCCCCN
Method in brief: as §1

[13] = compound: CC(C)C[C@@H](C=O)NC(=O)[C@H](CC(C)C)NC(=O)[C@H](CC(C)C)NC(=O)OCc1ccccc1
Method in brief: as §1

pinometostat = compound: CC(C)N(C[C@H]1O[C@@H](n2cnc3c(N)ncnc32)[C@H](O)[C@@H]1O)[C@H]1C[C@@H](CCc2nc3cc(C(C)(C)C)ccc3[nH]2)C1 [pinometostat]
Method in brief: as §1

[14] = compound: CC1=C(C2=C(C=C1)C(=O)C3=CC=CC=C3N2CCCN)C
Method in brief: as §1

[15] = compound: CC1=C(C(CC(=O)N1)C2=CC=C(C=C2)C(F)(F)F)C(=O)NC3=C(C=C4C(=C3)C=NN4)F
Method in brief: as §1

Measured: log2 fold change

RIC8A isoform 3 (UniProt Q9NPQ8)
inactive: erlotinib 0.063 | [1] 0.114 | [2] 0 | [3] -0.031 | [4] 0.114 | [5] -0.052 | [6] 0.005 | [7] -0.021 | [8] -0.071 | [9] -0.057 | IRAK-1-4 Inhibitor I -0.073 | ibrutinib -0.051 | [10] -0.193 | ralimetinib 0.06 | [11] -0.052 | [12] -0.354 | [13] 0.066 | pinometostat 0.166 | [14] -0.132

RNF167 (UniProt Q9H6Y7)
inactive: erlotinib -0.133 | [1] -0.073 | [2] -0.069 | [3] 0.052 | [4] 0.025 | [5] 0.025 | [6] -0.004 | [7] -0.07 | [8] -0.018 | [9] -0.009 | IRAK-1-4 Inhibitor I -0.001 | ibrutinib 0.015 | [10] 0.039 | ralimetinib -0.018 | [11] -0.025 | [12] -0.047 | [13] -0.009 | pinometostat 0.015 | [14] 0

RCOR3 isoform 3 (UniProt Q9P2K3)
inactive: erlotinib 0.116 | [1] 0.084 | [3] -0.008 | [4] 0.022 | [5] -0.01 | [6] -0.011 | [7] 0.018 | [8] -0.003 | [9] 0.057 | IRAK-1-4 Inhibitor I 0.009 | ibrutinib -0.053 | [10] -0.188 | ralimetinib 0.017 | [12] -0.048 | [13] 0.062 | pinometostat -0.038 | [14] -0.035

RCN3 (UniProt Q96D15)
inactive: erlotinib 0.033 | [1] 0.013 | [2] 0.058 | [3] 0.048 | [4] 0.03 | [5] -0.029 | [6] -0.057 | [7] -0.023 | [8] 0.07 | [9] -0.103 | IRAK-1-4 Inhibitor I 0.131 | ibrutinib 0.075 | [10] -0.048 | ralimetinib -0.013 | [11] 0.013 | [12] 0.047 | [13] 0.026 | pinometostat -0.035 | [14] -0.031

RERE (UniProt Q9P2R6)
inactive: erlotinib -0.026 | [2] 0.002 | [3] -0.01 | [5] -0.016 | [6] -0.164 | IRAK-1-4 Inhibitor I -0.023 | ibrutinib -0.003 | ralimetinib -0.033 | [11] 0.013 | [12] 0.099 | [13] 0.169 | pinometostat 0.099 | [15] -0.018

RCBTB1 (UniProt Q8NDN9)
inactive: erlotinib 0.148 | [2] -0.063 | [3] -0.098 | [5] -0.245 | ibrutinib 0.022 | [11] -0.184 | [12] 0.075

RIPOR1 isoform 4 (UniProt Q6ZS17)
inactive: [2] -0.064 | [6] -0.19 | [8] 0.093 | [9] -0.133 | IRAK-1-4 Inhibitor I 0.028 | ralimetinib 0.057 | [11] -0.122 | [13] 0.228 | pinometostat -0.054 | [14] 0

RC3H2 (UniProt Q9HBD1)
inactive: [2] -0.191 | [8] -0.201 | [9] 0.126 | [11] 0.125 | [14] -0.081

RELA (UniProt Q04206)
inactive: [1] 0.034 | [2] 0.003 | [3] -0.011 | [4] -0.007 | [5] 0.014 | [6] -0.002 | [7] 0.004 | [8] -0.022 | [9] 0.011 | IRAK-1-4 Inhibitor I -0.011 | ibrutinib -0.002 | [10] 0.022 | ralimetinib 0.025 | [11] 0 | [12] -0.018 | [13] 0.031 | pinometostat 0.003 | [14] -0.054

Source: the supplement of paper PMC10849652
